These are yes or no findings as the source states them, for the method shown. In cells and extracts the contact can be indirect. Where a sequence is shown, tags or fusion partners need not be part of it.

The experiment concerns the target N. benthamiana myosin XI-K globular tail domain fused with maltose-binding protein (Nicotiana benthamiana). Description: pull-down; MBP-XIK GTD or MBP-GUS immobilised on resin; GFP-fused proteins detected before (input) and after pull-down by immunoblot with rabbit polyclonal GFP-specific antibody; done as described in ref. 30.

B1: C-terminal domain of mammalian reovirus non-structural protein μNS fused to GFP (domain or fragment, UniProt P12419-1 471-721)
chain: SNDVTDGIKLQLDASRQCHECPVLQQKVVELEKQIIMQKSIQSDPTPVALQPLLSQLRELSSEVTRLQMELSRAQSLNAQLEADVKSAQSCSLDMYLRHHTCINGHAKEDELLDAVRVAPDVRREIMEKRSEVRQGWCERISKEAAAKCQTVIDDLTLMNGKQAQEITELRDSAEKYEKQIAELVSTITQNQITYQQELQALVAKNVELDALNQRQAKSLRITPSLLSATPIDSVDDVADLIDFSVPTDEL
For B1, the binding entry was “no binding”.

The values above are taken from article PMC4591342.
